1 substance from paper PMC5777986 can be followed below.

Chains of the proteins cited; added tags and fusions are not shown. Lines headed by an entry give the natural chain unless they say otherwise; changes in a name come on top.
UniProt P69423: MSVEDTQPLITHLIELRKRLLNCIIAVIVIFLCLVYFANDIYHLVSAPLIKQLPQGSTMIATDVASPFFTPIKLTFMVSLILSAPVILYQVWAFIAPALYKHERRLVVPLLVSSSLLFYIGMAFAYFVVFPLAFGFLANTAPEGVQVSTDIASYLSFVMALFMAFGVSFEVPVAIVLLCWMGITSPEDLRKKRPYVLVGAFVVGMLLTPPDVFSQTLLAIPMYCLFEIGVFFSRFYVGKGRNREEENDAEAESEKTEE

No constants are given. Whether binding was seen depends on the method and setting. Binding seen in cells or lysates may run through a third protein. Binding can be weak; no strength is given.

This test deals with TatC (E. coli) (UniProt P69423). In words: cross-linking; inverted inner membrane vesicles (TatABC, TatEBC, TatEABC) diluted in INV-buffer, DCCD (1 µl of 50 mM in 100 µl) added, 20 min on ice, TCA precipitation, 9% Tricine SDS-PAGE, Western blot with antibodies against TatA, TatB, TatC, TatE. Background: In western blotting, separated proteins are transferred to a membrane and probed.

With TatB (from UniProt P69425), the binding entry was “binds”.
